PubChem BioAssay AID686943 – Drosophila RNAi Screening Center, 2013
The deposit covers about 23,000 reagents; below is an unselected part of those with a known target gene and a result. 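Extra replicates exist only for a retested subset of genes; insulin dose and duration not given; both raised and lowered dpERK matter.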 Further read-outs or replicates are left out here. Not given: the amount of reagent, the time to read-out.

- Assay: 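Knockdowns that increase or decrease active ERK after insulin receptor stimulation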 (primary screen)
- Cell system: Drosophila S2R+ haemocyte-like cells expressing YFP-tagged ERK (Rolled)
- Reagent: long dsRNA against Drosophila genes
- Challenge: insulin stimulation versus unstimulated cells; dose and duration not given
- Measurement: 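Per-plate z-scores of phospho-ERK immunostaining normalised to YFP-tagged ERK, measured with and without insulin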
- Scale: replicate 1, z-score of dpERK with insulin: higher = more active ERK per ERK-YFP after insulin

{"Target gene": "Icmt", "DRSC id": "DRSC09834", "replicate 1, z-score of dpERK with insulin": 0.38}
{"Target gene": "fau", "DRSC id": "DRSC12816", "replicate 1, z-score of dpERK with insulin": -0.16}
{"Target gene": "fau", "DRSC id": "DRSC12817", "replicate 1, z-score of dpERK with insulin": 0.69}
{"Target gene": "fau", "DRSC id": "DRSC16943", "replicate 1, z-score of dpERK with insulin": -0.35}
{"Target gene": "fau", "DRSC id": "DRSC16944", "replicate 1, z-score of dpERK with insulin": -0.41}
{"Target gene": "fau", "DRSC id": "DRSC16945", "replicate 1, z-score of dpERK with insulin": 0.93}
{"Target gene": "fau", "DRSC id": "DRSC22360", "replicate 1, z-score of dpERK with insulin": 0.52}
{"Target gene": "CG1951", "DRSC id": "DRSC15403", "replicate 1, z-score of dpERK with insulin": -0.28}
{"Target gene": "NimB1", "DRSC id": "DRSC01880", "replicate 1, z-score of dpERK with insulin": 0.48}
{"Target gene": "CG13405", "DRSC id": "DRSC08310", "replicate 1, z-score of dpERK with insulin": 1.18}
{"Target gene": "EDTP", "DRSC id": "DRSC07409", "replicate 1, z-score of dpERK with insulin": 0.69}
{"Target gene": "CG2906", "DRSC id": "DRSC06841", "replicate 1, z-score of dpERK with insulin": 0.63}
{"Target gene": "ND-ASHI", "DRSC id": "DRSC18291", "replicate 1, z-score of dpERK with insulin": 0.2}
{"Target gene": "Try29F", "DRSC id": "DRSC03466", "replicate 1, z-score of dpERK with insulin": -0.77}
{"Target gene": "CG3776", "DRSC id": "DRSC04417", "replicate 1, z-score of dpERK with insulin": -0.35}
{"Target gene": "del", "DRSC id": "DRSC03170", "replicate 1, z-score of dpERK with insulin": 1.13}
{"Target gene": "Grip", "DRSC id": "DRSC17940", "replicate 1, z-score of dpERK with insulin": -3.59}
{"Target gene": "Grip", "DRSC id": "DRSC18395", "replicate 1, z-score of dpERK with insulin": -0.09}
{"Target gene": "CG3500", "DRSC id": "DRSC04379", "replicate 1, z-score of dpERK with insulin": 0.06}
{"Target gene": "mRpS7", "DRSC id": "DRSC02814", "replicate 1, z-score of dpERK with insulin": -0.78}
{"Target gene": "galene", "DRSC id": "DRSC08640", "replicate 1, z-score of dpERK with insulin": 0.51}
{"Target gene": "galene", "DRSC id": "DRSC08641", "replicate 1, z-score of dpERK with insulin": 0.62}
